Patent publication US20150328322A1, “DRUG DELIVERY VEHICLES” (priority 2012, published 2015)
The name of at least one read-out is uncertain. For part of these data: For at least one compound, name, drawing or mass did not settle the structure.

Chains of the proteins cited; added tags and fusions are not shown. Lines headed by an entry give the natural chain unless they say otherwise; changes in a name come on top.
UniProt P19726: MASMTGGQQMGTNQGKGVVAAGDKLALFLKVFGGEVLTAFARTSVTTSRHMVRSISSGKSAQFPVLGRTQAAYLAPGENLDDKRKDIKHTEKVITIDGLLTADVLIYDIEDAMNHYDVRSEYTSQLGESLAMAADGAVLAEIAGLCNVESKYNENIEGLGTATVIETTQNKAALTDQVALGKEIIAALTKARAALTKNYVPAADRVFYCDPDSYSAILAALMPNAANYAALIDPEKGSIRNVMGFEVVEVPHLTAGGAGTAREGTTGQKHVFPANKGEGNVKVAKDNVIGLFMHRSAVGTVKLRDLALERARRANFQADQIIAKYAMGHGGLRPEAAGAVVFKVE
UniProt P03728: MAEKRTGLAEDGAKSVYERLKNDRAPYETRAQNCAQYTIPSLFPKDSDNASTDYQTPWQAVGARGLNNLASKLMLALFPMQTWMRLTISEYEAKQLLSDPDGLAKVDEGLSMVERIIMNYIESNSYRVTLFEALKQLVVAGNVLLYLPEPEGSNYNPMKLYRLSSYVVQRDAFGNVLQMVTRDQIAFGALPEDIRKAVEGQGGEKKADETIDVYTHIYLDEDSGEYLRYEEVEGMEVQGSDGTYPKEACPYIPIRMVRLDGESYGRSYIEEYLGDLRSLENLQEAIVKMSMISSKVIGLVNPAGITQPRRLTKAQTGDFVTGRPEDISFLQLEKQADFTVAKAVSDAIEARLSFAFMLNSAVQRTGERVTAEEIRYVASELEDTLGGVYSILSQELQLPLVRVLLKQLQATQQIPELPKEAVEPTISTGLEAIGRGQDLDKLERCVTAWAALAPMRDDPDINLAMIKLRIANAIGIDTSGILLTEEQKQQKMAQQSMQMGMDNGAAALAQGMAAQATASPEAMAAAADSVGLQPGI

How the values were obtained:
MHD capsid II = target: T1, MHD capsid II (Escherichia phage T7, UniProt P19726); assay: AUC-BD of connector-free T7 capsid (permeability to gradient compounds); type: physicochemical; conditions: shell of MLD capsid II without connector
T1 construct: These latter capsid shells are produced during DNA packaging; made in house; host or cells: phage-infected E. coli (inferred)

T7 MLD capsid II = target: T2, T7 MLD capsid II (Escherichia phage T7, UniProt P03728+P19726); conditions: 25° C.; FIG. 6; cited from earlier work
T2 construct: These latter capsid shells are produced during DNA packaging

| SMILES | permeability of MHD capsid II (MHD capsid II) | permeability observed by quenching of bound bis-ANS fluorescence (T7 MLD capsid II) |
| --- | --- | --- |
| CC(=O)Nc1c(I)c(C(=O)N[C@H]2C(O)O[C@H](CO)[C@@H](O)[C@@H]2O)c(I)c(N(C)C(C)=O)c1I (stereo partly drawn) [Metrizamide] | permeable |  |
| CC(=O)N(CC(O)CO)c1c(I)c(C(=O)NCC(O)CO)c(I)c(C(=O)NCC(O)CO)c1I (stereo not drawn) [Nycodenz] | permeable |  |
| CC[n+]1c(-c2ccccc2)c2cc(N)ccc2c2ccc(N)cc21 [ethidium] |  | limited permeability |
